These results are taken from US7803768B2, “Method for treatment of hyperglycemia in a subject in need thereof” (Kyoto University, priority 2005, dated 2010).

The subject of this data set is n0-STZ model. In words: n0-STZ model: neonatal streptozotocin-treated rats given rat ghrelin (Example 1). Conditions: 100 μg/kg s.c. twice a day, 2nd to 8th day after birth, mean ± SE. Format: in vivo, Sprague Dawley rats. An excerpt: Female or male Sprague Dawley rats, purchased from Charles River were, were allowed free access to tap water and a standard pellet rat diet (352 kcal/100 g, CE-2, CLEA). Females were caged with a male for one night, and pregnancy was detected by abdominal palpation 14 days later. Natural birth occurred 22 days after mating. […]
Insulin and pdx-1 were detected immunohistochemically on 3 μm-thick tissue sections using an indirect peroxidase-labeling technique. […] Quantitative evaluations of total β cells area were performed by a computer-assisted image analysis procedure using an Olympus BX 51 microscope connected to a digital camera DP 12 and Mac SCOPE Ver2.6 software (Mitani, Fukui, Japan). β cells area and total pancreatic section area were evaluated for each stained section. A relative volume of β cells was determined by a sterological morphological method, with calculation of the ratio between the areas occupied by immunoreactive cells and those occupied by total pancreatic cells. […]
Realtime PCR was performed as follows. […] The concentration of each mRNA product was quantified using calibration curves expressing the fluorescence intensity against the amount of standardized PCR product. […]

For “GSS(n-octanoyl)FLSPEHQKAQQRKESKKPPAKLQPR [rat ghrelin]”, the “Pancreas Weight” value (10-week-old rats) came to 556 ± 83 mg. For the same substance, under “21-day-old rats”, the “Body Weight” value was 36.3 ± 3.9 g.
